No constants are given. Whether binding was seen depends on the method and setting. Binding can be weak; no strength is given.
Columns and labels:
[1] = target: T1, AtPHF1-CubPLV (Arabidopsis thaliana) (UniProt Q8GYE0); assay: two-hybrid
T1 sequence: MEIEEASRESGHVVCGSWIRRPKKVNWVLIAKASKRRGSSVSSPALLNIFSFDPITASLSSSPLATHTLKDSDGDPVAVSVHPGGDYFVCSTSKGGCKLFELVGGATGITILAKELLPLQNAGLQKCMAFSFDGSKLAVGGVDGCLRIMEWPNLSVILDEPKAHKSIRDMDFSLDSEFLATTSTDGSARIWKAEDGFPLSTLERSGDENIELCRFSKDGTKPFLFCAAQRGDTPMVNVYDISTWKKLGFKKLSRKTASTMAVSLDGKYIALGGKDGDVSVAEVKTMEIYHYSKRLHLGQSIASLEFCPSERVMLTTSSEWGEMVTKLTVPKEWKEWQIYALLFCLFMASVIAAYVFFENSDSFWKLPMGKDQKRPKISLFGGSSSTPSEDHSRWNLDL

Sequences of proteins named here, by UniProt entry; tags and fusion partners are left off. A change or cut given only in a name is not applied to a line headed by its entry.
UniProt Q9C7D7: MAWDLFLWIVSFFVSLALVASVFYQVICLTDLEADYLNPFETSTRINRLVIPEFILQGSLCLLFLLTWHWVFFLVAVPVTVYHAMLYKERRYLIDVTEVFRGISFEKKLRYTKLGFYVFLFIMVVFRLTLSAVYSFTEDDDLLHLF
UniProt Q84W04: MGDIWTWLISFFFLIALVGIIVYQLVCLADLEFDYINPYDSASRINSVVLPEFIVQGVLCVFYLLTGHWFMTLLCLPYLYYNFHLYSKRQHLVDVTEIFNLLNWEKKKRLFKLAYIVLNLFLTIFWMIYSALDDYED
UniProt Q8GWT5: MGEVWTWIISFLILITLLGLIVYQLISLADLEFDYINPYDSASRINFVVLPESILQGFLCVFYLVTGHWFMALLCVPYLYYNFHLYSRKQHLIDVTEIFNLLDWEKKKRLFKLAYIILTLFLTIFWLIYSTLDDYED

[2] = target: T2, AtPHT1;1-CubPLV (Arabidopsis thaliana) (UniProt Q8VYM2); assay: two-hybrid
T2 sequence: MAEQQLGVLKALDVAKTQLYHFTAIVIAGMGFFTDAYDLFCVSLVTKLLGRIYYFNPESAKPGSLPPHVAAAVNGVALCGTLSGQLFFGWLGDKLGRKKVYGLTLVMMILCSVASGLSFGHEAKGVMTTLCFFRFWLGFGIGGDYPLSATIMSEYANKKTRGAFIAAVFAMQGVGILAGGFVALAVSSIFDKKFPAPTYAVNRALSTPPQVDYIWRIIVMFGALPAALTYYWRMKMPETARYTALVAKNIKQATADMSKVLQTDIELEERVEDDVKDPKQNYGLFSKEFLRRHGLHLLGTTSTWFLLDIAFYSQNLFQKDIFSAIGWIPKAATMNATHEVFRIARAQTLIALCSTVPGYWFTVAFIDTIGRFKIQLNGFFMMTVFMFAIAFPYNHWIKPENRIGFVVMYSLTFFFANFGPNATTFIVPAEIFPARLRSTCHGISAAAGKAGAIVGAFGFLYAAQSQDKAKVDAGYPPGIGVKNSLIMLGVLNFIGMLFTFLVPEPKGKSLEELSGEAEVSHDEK

| binding [1] | binding [2] | Substance |
| --- | --- | --- |
| binds | binds | NubG-AtCNIH1 (from UniProt Q9C7D7) |
| binds | binds | NubG-AtCNIH4 (from UniProt Q84W04) |
| binds | binds | NubG-AtCNIH3 (from UniProt Q8GWT5) |

— article doi:10.1101/2024.06.20.599911 (bioRxiv, 2024)
